Test results as given in publication PMC10289378.
No constants are given. Whether binding was seen depends on the method and setting. Binding seen in cells or lysates may run through a third protein. These calls come from enrichment with a bait or labelling near it, and not all partners need be listed. For some assays here: A no says only that the protein was not detected with the bait.

Chains of the proteins cited; added tags and fusions are not shown.
UniProt P11260: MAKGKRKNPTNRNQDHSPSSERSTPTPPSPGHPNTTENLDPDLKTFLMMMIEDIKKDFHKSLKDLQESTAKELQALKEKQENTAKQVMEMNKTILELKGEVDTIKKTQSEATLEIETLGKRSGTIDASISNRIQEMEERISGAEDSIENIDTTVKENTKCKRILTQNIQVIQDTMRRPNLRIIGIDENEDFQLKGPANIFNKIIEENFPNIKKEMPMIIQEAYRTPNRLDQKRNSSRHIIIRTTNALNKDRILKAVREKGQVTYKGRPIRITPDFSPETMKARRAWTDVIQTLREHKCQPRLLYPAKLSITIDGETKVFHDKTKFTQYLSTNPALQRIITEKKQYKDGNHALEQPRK
UniProt Q6ZQ08: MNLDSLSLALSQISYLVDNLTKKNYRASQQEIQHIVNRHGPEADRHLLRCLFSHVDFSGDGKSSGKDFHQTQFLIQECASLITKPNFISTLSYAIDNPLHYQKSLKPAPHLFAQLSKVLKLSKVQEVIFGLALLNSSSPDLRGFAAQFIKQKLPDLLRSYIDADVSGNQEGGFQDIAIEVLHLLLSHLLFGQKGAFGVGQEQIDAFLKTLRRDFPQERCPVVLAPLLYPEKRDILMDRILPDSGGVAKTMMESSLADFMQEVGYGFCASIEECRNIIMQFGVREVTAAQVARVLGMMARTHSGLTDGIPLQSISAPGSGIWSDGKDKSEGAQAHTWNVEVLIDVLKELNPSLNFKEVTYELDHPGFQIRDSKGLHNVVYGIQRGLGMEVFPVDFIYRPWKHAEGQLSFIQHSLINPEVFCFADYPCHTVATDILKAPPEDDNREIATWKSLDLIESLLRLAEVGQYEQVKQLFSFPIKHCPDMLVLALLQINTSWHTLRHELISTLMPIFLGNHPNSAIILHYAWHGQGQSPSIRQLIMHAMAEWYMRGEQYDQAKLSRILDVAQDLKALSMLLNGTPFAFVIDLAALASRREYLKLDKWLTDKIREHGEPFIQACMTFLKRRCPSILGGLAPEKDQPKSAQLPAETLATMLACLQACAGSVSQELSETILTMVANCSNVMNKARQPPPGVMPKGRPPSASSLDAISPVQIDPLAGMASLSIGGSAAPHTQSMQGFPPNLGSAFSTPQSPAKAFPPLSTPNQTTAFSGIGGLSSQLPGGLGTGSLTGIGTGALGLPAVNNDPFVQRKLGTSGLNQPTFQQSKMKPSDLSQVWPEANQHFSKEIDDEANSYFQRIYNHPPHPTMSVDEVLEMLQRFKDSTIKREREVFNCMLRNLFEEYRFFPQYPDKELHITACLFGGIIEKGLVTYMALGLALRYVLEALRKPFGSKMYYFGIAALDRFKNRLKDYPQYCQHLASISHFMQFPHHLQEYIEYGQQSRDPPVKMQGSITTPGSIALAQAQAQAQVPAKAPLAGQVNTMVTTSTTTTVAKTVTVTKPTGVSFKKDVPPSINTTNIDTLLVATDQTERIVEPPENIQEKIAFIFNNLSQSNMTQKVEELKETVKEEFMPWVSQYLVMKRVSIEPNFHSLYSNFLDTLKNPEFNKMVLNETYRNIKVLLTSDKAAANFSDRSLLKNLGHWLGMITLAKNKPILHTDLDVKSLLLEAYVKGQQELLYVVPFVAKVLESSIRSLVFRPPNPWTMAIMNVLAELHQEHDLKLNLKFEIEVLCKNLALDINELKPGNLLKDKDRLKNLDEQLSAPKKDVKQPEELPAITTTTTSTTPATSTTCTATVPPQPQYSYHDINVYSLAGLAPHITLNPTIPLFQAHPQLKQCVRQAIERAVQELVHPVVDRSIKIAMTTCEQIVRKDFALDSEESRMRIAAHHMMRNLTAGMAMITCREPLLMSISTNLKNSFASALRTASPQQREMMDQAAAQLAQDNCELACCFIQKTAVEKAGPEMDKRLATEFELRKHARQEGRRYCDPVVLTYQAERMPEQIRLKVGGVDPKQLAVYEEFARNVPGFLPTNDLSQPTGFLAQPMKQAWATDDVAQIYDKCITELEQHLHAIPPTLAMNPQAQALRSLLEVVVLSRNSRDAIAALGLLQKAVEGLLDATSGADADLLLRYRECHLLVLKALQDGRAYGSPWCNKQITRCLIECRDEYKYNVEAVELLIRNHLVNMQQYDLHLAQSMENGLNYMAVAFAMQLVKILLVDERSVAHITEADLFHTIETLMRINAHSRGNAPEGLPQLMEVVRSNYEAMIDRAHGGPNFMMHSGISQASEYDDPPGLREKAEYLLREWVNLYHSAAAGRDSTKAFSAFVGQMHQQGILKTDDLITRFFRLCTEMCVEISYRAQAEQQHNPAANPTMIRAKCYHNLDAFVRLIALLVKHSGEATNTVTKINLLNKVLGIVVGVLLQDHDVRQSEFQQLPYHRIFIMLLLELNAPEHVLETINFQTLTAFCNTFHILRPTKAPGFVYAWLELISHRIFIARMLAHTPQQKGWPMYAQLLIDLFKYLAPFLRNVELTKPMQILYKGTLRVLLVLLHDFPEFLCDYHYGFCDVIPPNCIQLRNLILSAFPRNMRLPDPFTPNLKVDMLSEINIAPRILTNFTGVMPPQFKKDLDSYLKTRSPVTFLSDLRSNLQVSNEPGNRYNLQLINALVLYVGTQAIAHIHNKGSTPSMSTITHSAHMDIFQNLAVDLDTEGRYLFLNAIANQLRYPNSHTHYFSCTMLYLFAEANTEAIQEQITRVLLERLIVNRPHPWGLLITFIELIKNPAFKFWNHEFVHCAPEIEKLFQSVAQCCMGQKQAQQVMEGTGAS
UniProt Q60809: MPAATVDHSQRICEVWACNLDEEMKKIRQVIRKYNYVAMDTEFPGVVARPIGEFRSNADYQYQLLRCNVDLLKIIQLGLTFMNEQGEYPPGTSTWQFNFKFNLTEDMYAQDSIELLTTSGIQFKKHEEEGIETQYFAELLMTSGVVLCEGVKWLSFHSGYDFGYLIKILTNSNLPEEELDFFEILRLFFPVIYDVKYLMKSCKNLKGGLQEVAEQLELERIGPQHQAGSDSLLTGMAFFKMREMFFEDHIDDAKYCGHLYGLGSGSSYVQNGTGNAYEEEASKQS
UniProt P63073: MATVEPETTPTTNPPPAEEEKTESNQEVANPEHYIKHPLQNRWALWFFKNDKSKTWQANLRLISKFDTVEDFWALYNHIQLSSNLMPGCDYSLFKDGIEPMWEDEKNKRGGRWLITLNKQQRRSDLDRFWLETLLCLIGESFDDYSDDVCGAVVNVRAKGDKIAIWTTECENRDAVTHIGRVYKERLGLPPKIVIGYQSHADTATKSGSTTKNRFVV
UniProt Q61584: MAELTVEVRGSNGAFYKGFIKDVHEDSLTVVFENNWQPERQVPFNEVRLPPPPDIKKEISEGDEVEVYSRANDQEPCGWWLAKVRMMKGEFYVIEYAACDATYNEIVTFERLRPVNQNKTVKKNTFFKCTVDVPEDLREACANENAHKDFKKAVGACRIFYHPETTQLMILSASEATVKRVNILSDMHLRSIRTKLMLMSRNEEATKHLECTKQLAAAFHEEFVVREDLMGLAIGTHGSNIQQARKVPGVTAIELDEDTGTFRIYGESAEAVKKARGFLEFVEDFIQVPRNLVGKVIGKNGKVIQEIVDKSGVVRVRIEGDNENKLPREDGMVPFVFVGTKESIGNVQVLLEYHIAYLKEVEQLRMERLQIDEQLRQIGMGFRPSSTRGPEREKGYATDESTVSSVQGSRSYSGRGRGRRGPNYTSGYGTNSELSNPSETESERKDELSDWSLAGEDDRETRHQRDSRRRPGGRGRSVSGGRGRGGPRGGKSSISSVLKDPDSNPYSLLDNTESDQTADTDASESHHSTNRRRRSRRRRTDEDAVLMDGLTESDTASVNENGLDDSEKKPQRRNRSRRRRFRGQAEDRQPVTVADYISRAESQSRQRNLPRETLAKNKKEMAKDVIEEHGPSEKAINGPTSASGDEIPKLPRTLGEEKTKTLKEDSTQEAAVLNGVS

B1: PRKRA (protein, UniProt Q9WTX2 1-313)
chain: MSHSRHRAEAPPLQREDSGTFSLGKMITAKPGKTPIQVLHEYGMKTKNIPVYECERSDVQVHVPTFTFRVTVGDITCTGEGTSKKLAKHRAAEAAINILKANASICFAVPDPLMPDPSKQPKNQLNPIGSLQELAIHHGWRLPEYTLSQEGGPAHKREYTTICRLESFMETGKGASKKQAKRNAAEKFLAKFSNISPENHISLTNVVGHSLGCTWHSLRNSPGEKINLLKRSLLSLPNTDYIQLLSEIASEQGFNITYLDIEELSANGQYQCLAELSTSPITVCHGSGISCGNAQSDAAHNALQYLKIIAERK
B2: TARBP2 (protein, UniProt P97473 1-365)
chain: MSEEDQGSGTTTGCGLPSIEQMLAANPGKTPISLLQEYGTRIGKTPVYDLLKAEGQAHQPNFTFRVTVGDTSCTGQGPSKKAAKHKAAEVALKHLKGGSMLEPALEDSSSFSLLDSSPPEDTPVVAAEAAAPVPSAVLTRSPPMEMQPPVSPQQSECNPVGALQELVVQKGWRLPEYMVTQESGPAHRKEFTMTCRVERFIEIGSGTSKKLAKRNAAAKMLLRVHTVPLDARDGNEAEPDDDHFSIGVSSRLDGLRNRGPGCTWDSLRNSVGEKILSLRSCSVGSLGALGSACCSVLSELSEEQAFHVSYLDIEELSLSGLCQCLVELSTQPATVCYGSATTREAARGDAAHRALQYLRIMAGSK
B3: G3BP2 (protein, UniProt P97379 1-482)
chain: MVMEKPSPLLVGREFVRQYYTLLNKAPEYLHRFYGRNSSYVHGGVDASGKPQEAVYGQNDIHHKVLSLNFSECHTKIRHVDAHATLSDGVVVQVMGLLSNSGQPERKFMQTFVLAPEGSVPNKFYVHNDMFRYEDEVFGDSEPELDEESEDEVEEEQEDRQPSPEPVQENANSAYYDAHPVTNGIEEPLEESSHEPEPEPESETKTEELKPQVEEKHLEELEEKSATPPPAEPASLPQEPPKAFSWASVTSKNLPPSGTVSSSGIPPHVKAPVSQPRVDAKPEVQSQPPRVREQRPRERPGFPPRGPRPGRGDMEQNDSDNRRIIRYPDSHQLFVGNLPHDIDENELKEFFMSFGNVVELRINTKGVGGKLPNFGFVVFDDSEPVQRILIAKPIMFRGEVRLNVEEKKTRAARERETRGGGDDRRDIRRNDRGPGGPRGIVGGGMMRDRDGRGPPPRGGMTQKLGSGRGTGQMEGRFTGQRR
B4: CAPRIN1 (protein, UniProt Q60865 1-707)
chain: MPSATSHSGSGSKSSGPPPPSGSSGSEAAAGAAAPASQHPATGTGAVQTEAMKQILGVIDKKLRNLEKKKGKLDDYQERMNKGERLNQDQLDAVSKYQEVTNNLEFAKELQRSFMALSQDIQKTIKKTARREQLMREEAEQKRLKTVLELQYVLDKLGDDDVRTDLKQGLSGVPILSEEELSLLDEFYKLVDPERDMSLRLNEQYEHASIHLWDLLEGKEKPVCGTTYKALKEIVERVFQSNYFDSTHNHQNGLCEEEEAASAPTVEDQVAEAEPEPAEEYTEQSEVESTEYVNRQFMAETQFSSGEKEQVDEWTVETVEVVNSLQQQPQAASPSVPEPHSLTPVAQSDPLVRRQRVQDLMAQMQGPYNFIQDSMLDFENQTLDPAIVSAQPMNPTQNMDMPQLVCPQVHSESRLAQSNQVPVQPEATQVPLVSSTSEGYTASQPLYQPSHATEQRPQKEPMDQIQATISLNTDQTTASSSLPAASQPQVFQAGTSKPLHSSGINVNAAPFQSMQTVFNMNAPVPPANEPETLKQQSQYQATYNQSFSSQPHQVEQTELQQDQLQTVVGTYHGSQDQPHQVPGNHQQPPQQNTGFPRSSQPYYNSRGVSRGGSRGARGLMNGYRGPANGFRGGYDGYRPSFSNTPNSGYSQSQFTAPRDYSGYQRDGYQQNFKRGSGQSGPRGAPRGRGGPPRPNRGMPQMNTQQVN
B5: CNOT4 E3 ubiquitin ligase (protein, UniProt Q8BT14 1-575)
chain: MSRSPDAKEDPVECPLCMEPLEIDDINFFPCTCGYQICRFCWHRIRTDENGLCPACRKPYPEDPAVYKPLSQEELQRIKNEKKQKQNERKQKISENRKHLASVRVVQKNLVFVVGLSQRLADPEVLKRPEYFGKFGKIHKVVINNSTSYAGSQGPSASAYVTYIRSEDALRAIQCVNNVVVDGRTLKASLGTTKYCSYFLKNMQCPKPDCMYLHELGDEAASFTKEEMQAGKHQEYEQKLLQELYKLNPNFLQLSTGSVDKNKNKVTPLQRYDTPIDKPSDSLSIGNGDNSQQISNSDTPSPPPGLSKSNPVIPISSSNHSARSPFEGAVTESQSLFSDNFRHPNPIPSGLPPFPSSPQTPSDWPTAPEPQSLFTSETIPVSSSTDWQAAFGFGSSKQPEDDLGFDPFDVTRKALADLIEKELSVQDQPSLSPTSLQNASSHTTTAKGPGSGFLHSAAPTNANSLNSTFSVLPQRFPQFQQHRAVYNSFGFPGQAARYPWMAFPRNSIMHLNHTANPTSNSNFLDLNLPPQHNTGLGGIPIAGEEEVKVSTMPLSASSHSLQQGQQPTSLHTTVA

Target: LINE-1 (L1) ORF1p (mouse (endogenous in Mael^-/- testis)) (UniProt P11260)
Assay: affinity purification with mass spectrometry; anti-ORF1p antibody (Abcam ab216324) coupled to Dynabeads M-270 Epoxy, total Mael^-/- testicular extracts, 2.5 h at 4°C, washes in 100 mM KCl, 20 mM Tris-HCl pH 8.0, 0.3% NP-40 (higher stringency: 300 mM KCl); beads only or isotype IgG as negative controls; LC/MS/MS

Molecule | binding
CNOT1 (from UniProt Q6ZQ08 1-2375) | no binding
CCR4-NOT complex subunit CNOT7 (from UniProt Q60809 1-285) | binds
eIF4E (from UniProt P63073 1-217) | binds
FXR1 (from UniProt Q61584 1-677) | binds
CNOT6L (from UniProt Q8VEG6 1-555) | binds

Target: LINE-1 (L1) ORF1p (mouse (endogenous in Mael^-/- testis)) (UniProt P11260)
Assay: affinity purification with mass spectrometry; as a1, but Mael^-/- testis extract treated before immunoprecipitation with RNase A (10 μg/ml), RNase T1 (25 U/ml) and RNase I (50 U/ml), 30 min at room temperature

Molecule | binding
B1 | binds

Target: LINE-1 (L1) ORF1p (mouse (endogenous in Mael^-/- testis)) (UniProt P11260)
Assay: affinity purification with mass spectrometry; anti-ORF1p antibody (Abcam ab216324) coupled to Dynabeads M-270 Epoxy, total Mael^-/- testicular extracts, 2.5 h at 4°C, washes in 100 mM KCl, 20 mM Tris-HCl pH 8.0, 0.3% NP-40 (higher stringency: 300 mM KCl); beads only or isotype IgG as negative controls; LC/MS/MS
Remark: another data set of the same source

Molecule | binding
B1 | binds
B2 | binds weakly
B3 | binds
B4 | binds
B5 | no binding
